Data published in PubChem BioAssay AID504834 (National Center for Advancing Translational Sciences (NCATS), 2011).
In all, about 320,000 compounds went through this assay and about 22,000 (6.9%) were called active. This list was built around the results that the source calls inconclusive (neither active nor inactive); the mix of calls is not that of the screen. Calls follow the shape of the dose curve; as a rule, active = well fitted inhibition curve with a large enough effect; inconclusive = small, poorly fitted or top-dose-only effect, or another doubt; inactive = no such curve, though single readings can be large or run the other way. Where the call is inconclusive, the potency comes from a doubtful curve fit.

experiment: Primary qHTS for delayed death inhibitors of the malarial parasite plastid, 96 hour incubation; details: P. falciparum luciferase reporter growth; series mostly up to 28.7 µM
In short: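 Compounds incubated with erythrocytes infected by luciferase-expressing P. falciparum (2% hematocrit, 0.05% parasitemia final) for 96 hours, 37 C in 5% CO2. Growth inhibition scored as decreased luciferase luminescence.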
Potency is read from the fitted curve at half-maximal effect.

Row | Structure (SMILES) | Potency
1 | O=C(c1ccco1)N1CCN(C(=S)Nc2ccccc2Cl)CC1 | inconclusive: 18.5 µM [inhibitor, single point]
2 | Cc1cc(N2CCOCC2)nc2ccc(NC(=O)CCC(=O)N3CCC4(CC3)OCCO4)cc12 | inconclusive: 0.0083 µM [inhibitor, full curve, poor fit]
3 | C=CCC(CC=C)(NC(=O)c1cccc(C)c1)c1ccccc1 | inconclusive: 18.5 µM [inhibitor, single point]
5 | O=C(CNC1CCCCCC1)Nc1ccccc1N1CCCCC1 | inconclusive: 18.5 µM [inhibitor, partial curve, poor fit]
6 | CC(=O)c1cc(C)ccc1OC(=O)c1cccnc1 | active: 9.28 µM
7 | COC(=O)C1=C(CS(=O)(=O)c2cc(OC)ccc2OC)NC(=O)NC1c1ccc(O)c(OC)c1 (centres undefined) | active: 10.4 µM
8 | CC1CCN(C(=O)CSc2nnc(-c3ccccc3F)o2)CC1 | inactive
9 | COc1ccc2c(c1)c1ncn(Cc3ccco3)c(=O)c1n2C | inconclusive: 13.1 µM [inhibitor, single point]
10 | CCN(CC)S(=O)(=O)c1cccc(C(=O)c2c(C)cc3ccccn23)c1 | inconclusive: 0.465 µM [inhibitor, full curve, poor fit]
11 | CCOc1ccc2nc(NC(=O)CCn3cccc3)sc2c1 | inconclusive: 4.15 µM [inhibitor, full curve, poor fit]
12 | Cc1cc(OC(=O)c2ccc(C)c(C)c2)c([N+](=O)[O-])c(=O)[nH]1 | inactive
13 | Cc1cc(C2=NNC(=Nc3ccc(S(=O)(=O)N4CCOCC4)cc3)SC2)c(C)n1CC1CCCO1 (centres undefined) | inconclusive: 3.7 µM [inhibitor, partial curve, poor fit]
14 | CC(=O)N[C@@H]1C(O[C@H]2O[C@H](C(=O)O)C(O)[C@H](O)[C@H]2O)[C@H](O)[C@@H](CO)O[C@H]1O[C@@H]1C(C(=O)O)O[C@@H](O[C@H]2[C@H](O)[C@@H](CO)OC(O)[C@@H]2NC(C)=O)[C@H](O)[C@H]1O (some centres undefined) | active: 1.69 µM
15 | CCN(CCNC(=O)C1CC(=O)N(CCc2ccccc2)C1)c1ccccc1 (centres undefined) | inconclusive: 0.131 µM [inhibitor, full curve, poor fit]
16 | COc1ccc(/C=C/C(=O)c2c(O)n(CCC3=CCCCC3)c(=O)[nH]c2=O)cc1OC | inconclusive: 18.5 µM [inhibitor, single point]
17 | Cc1oc(-c2cccc(Cl)c2)nc1CSc1nc2c(c(=O)[nH]1)CCC2 | inconclusive: 18.5 µM [inhibitor, single point]
18 | O=C(CN1C(=O)NC(Cc2ccccc2)C1=O)Nc1ccc(OC(F)F)cc1 (centres undefined) | active: 13.1 µM
19 | COc1ccc(Nc2ncnc3c2cnn3Cc2ccccc2)cc1 | inconclusive: 0.329 µM [inhibitor, full curve, poor fit]
20 | CCN1CCN(c2ccc(NC(=O)c3cnccn3)cc2)CC1 | inactive
21 | COc1ccc(-c2cc(C(=O)NCCc3ccc(S(N)(=O)=O)cc3)c3ccccc3n2)cc1 | inactive
22 | CCc1ccc(-c2nn(-c3ccccc3C)cc2C(=O)N2CCN(C3CCS(=O)(=O)C3)CC2)cc1 (centres undefined) | inactive
23 | CC(C)(C)NC(=O)CSc1nnc(-c2ccncc2)n1Cc1ccccc1 | inactive
24 | CC1CCC2(CC1)NC(=O)N(CC(=O)N1CCN(C(=O)c3cccs3)CC1)C2=O (centres undefined) | inactive
25 | O=C1CC2(CCCCC2)Oc2ccc(O)cc21 | active: 4.15 µM

Some of these compounds in order of count of non-hydrogen atoms, largest number first:
Row | Structure (SMILES) | Potency
7 | COC(=O)C1=C(CS(=O)(=O)c2cc(OC)ccc2OC)NC(=O)NC1c1ccc(O)c(OC)c1 (centres undefined) | active: 10.4 µM
16 | COc1ccc(/C=C/C(=O)c2c(O)n(CCC3=CCCCC3)c(=O)[nH]c2=O)cc1OC | inconclusive: 18.5 µM [inhibitor, single point]
24 | CC1CCC2(CC1)NC(=O)N(CC(=O)N1CCN(C(=O)c3cccs3)CC1)C2=O (centres undefined) | inactive
18 | O=C(CN1C(=O)NC(Cc2ccccc2)C1=O)Nc1ccc(OC(F)F)cc1 (centres undefined) | active: 13.1 µM
9 | COc1ccc2c(c1)c1ncn(Cc3ccco3)c(=O)c1n2C | inconclusive: 13.1 µM [inhibitor, single point]

Further entries follow:

Row | Structure (SMILES) | Potency
26 | Cc1ccccc1NC(=O)/C=C/c1ccc([N+](=O)[O-])s1 | active: 11.7 µM
27 | CCC1CCCCN1C(=O)CCc1nnc(C2CCCCC2)o1 (centres undefined) | inconclusive: 18.5 µM [inhibitor, single point]
28 | CC(C)(C)NC(=O)C(=O)NCc1ccncc1 | active: 3.29 µM
29 | Cc1ccc(CCNC(=O)c2nnn(-c3cc(C)cc(C)c3)c2N)cc1 | inactive
30 | Cc1cc(C)c(NC2=NS(=O)(=O)c3ccccc32)c(C)c1 | inconclusive: 1.65 µM [inhibitor, partial curve, poor fit]
31 | CCOC(=O)C1CCCN(C(=O)/C=C/c2cc(OC)c(OC)c(OC)c2)C1 (centres undefined) | inconclusive: 5.86 µM [inhibitor, partial curve]
32 | CCCCOc1ccc(C(=O)NCC(=O)NCC(c2ccc(OC)cc2)N2CCOCC2)cc1 (centres undefined) | inconclusive: 10.4 µM [inhibitor, single point]
33 | O=[N+]([O-])c1ccc(Nc2ccc3ccccc3c2)nc1 | inconclusive: 11.7 µM [inhibitor, single point]
34 | O=C(O)c1ccc(S(=O)(=O)NCc2ccc3c(c2)OCO3)cc1 | inactive
35 | CN1CCC(N2CCN(c3cccc(C(F)(F)F)c3)CC2)CC1 | inconclusive: 13.1 µM [inhibitor, single point]
36 | Cn1c(-c2cccc(Br)c2)cnc1NCc1ccccc1O | active: 5.22 µM
37 | COc1cc(CN2CCN(Cc3cccc(OC)c3OC)CC2)cc(OC)c1 | inactive
38 | N#Cc1nc(-c2ccccc2F)oc1N1CCCCC1 | inactive
39 | CN1CCN(c2ccc(S(=O)(=O)N3CCCCC3)cc2NC(=O)COc2cccc(Cl)c2)CC1 | inconclusive: 11.7 µM [inhibitor, partial curve]
40 | Cc1c(S(=O)(=O)NC2CCCCCC2)c(=O)n(C)c(=O)n1C | inactive
41 | COc1cc(NC(=O)CSc2nnnn2-c2ccccc2)cc(OC)c1OC | inactive
42 | CC(C)CCN1NC2(CCCC(C)C2)NC1=S (centres undefined) | inactive
43 | COc1ccc(CNC(=O)CCN2C(=O)c3ccccc3C2=O)cc1 | inactive
44 | S=C(NNC(=S)NC1CC2CCC1C2)NC1CC2C=CC1C2 (centres undefined) | inconclusive: 18.5 µM [inhibitor, single point]
45 | COC(=O)C/C(C)=N/Nc1ccc(S(=O)(=O)N2CCCC2)cc1[N+](=O)[O-] | inactive
46 | CN(C)Cc1cc(C(C)(C)C)c(O)c(C(C)(C)C)c1 | active: 1.04 µM
47 | O=C(CN1C(=O)NC2(CCCCC2)C1=O)Nc1cc(C(F)(F)F)ccc1N1CCCC1 | inactive
48 | CC1CCN(C(=O)CN2C(=O)NC(c3ccccc3)(c3ccccc3)C2=O)CC1 | inconclusive: 14.7 µM [inhibitor, single point]
49 | O=c1ccc(/C=C/c2ccccc2)nn1Cc1ccccc1Cl | inconclusive: 20.8 µM [inhibitor, partial curve, poor fit]
50 | O=C(CN1CCCCC1)N1c2ccccc2Oc2ccccc21 | inconclusive: 11.7 µM [inhibitor, single point]

Row | Structure (SMILES) | Potency
51 | CNc1nc(-c2ccccc2)nc(-c2ccccc2)c1C#N | inactive
52 | COc1ccc(OCc2nnc3n2N=C(c2ccc(C)cc2)CS3)cc1 | inconclusive: 11.7 µM [inhibitor, single point]
53 | O=C(C(=O)N1CCN(Cc2ccc3c(c2)OCO3)CC1)c1c[nH]c2ccccc12 | inconclusive: 9.28 µM [inhibitor, partial curve]
54 | S=C(NCc1cccc(Cl)c1)NCc1ccco1 | inconclusive: 18.5 µM [inhibitor, single point]
55 | O=C(NCCOc1ccc(Cl)cc1)c1ccc2c(c1)OCCO2 | inactive
56 | CCN(CC)C(=O)c1ccc(Nc2nnc(C)c3ccccc23)cc1 | inactive
57 | Cc1ccc(Nc2nc(N)c([N+](=O)[O-])c(NCc3ccccc3)n2)cc1 | inconclusive: 2.62 µM [inhibitor, partial curve, poor fit]
58 | Cc1ccc(N(C(=O)CNC(=O)c2ccco2)C(C(=O)NC2CCCCC2)c2cccnc2)cc1C (centres undefined) | inconclusive: 10.4 µM [inhibitor, single point]
59 | CCCCn1c(O)c(C(C)=NCCCN(CC)CC)c(=O)[nH]c1=O | inconclusive: 11.7 µM [inhibitor, single point]
60 | CCN(CC)S(=O)(=O)c1ccc2c(c1)nc(SCC(=O)N(C)C1CCS(=O)(=O)C1)n2CC (centres undefined) | inactive
61 | O=S(=O)(c1cccc(-c2cn3ccccc3n2)c1)N1CCCCC1 | inconclusive: 18.5 µM [inhibitor, single point]
62 | C/C(=N/NC(=O)CSc1nc2ccccc2s1)c1ccncc1 | inactive
63 | Cc1cccc(NC(=O)CN2C(=S)NC(C)(C)CC2C)c1C (centres undefined) | inconclusive: 9.28 µM [inhibitor, partial curve, poor fit]
64 | CCOc1ccccc1/C=C/c1onc(C)c1S(=O)(=O)N1CCC(C(=O)N2CCCCCC2)CC1 | inconclusive: 7.38 µM [inhibitor, partial curve]
65 | COc1ccc2nc3cccc(OC)c3nc2c1 | inconclusive: 13.1 µM [inhibitor, single point]
66 | Cc1csc(N2CCN(c3cc4c(cc3Cl)nc(-c3ccncc3)n4CCCN3CCCC3)CC2)n1 | active: 3.7 µM
67 | COc1ccc(CNC(=O)C2CCN(S(=O)(=O)N3CCC4(CC3)OCCO4)CC2)c(OC)c1 | inactive
68 | Cc1ccc(NC(=S)NC2CC3CCC(C2)N3Cc2ccco2)cc1C (centres undefined) | active: 11.7 µM
69 | COc1cc(/C=C2/SC(=O)NC2=O)ccc1OCc1ccccc1 | inconclusive: 18.5 µM [inhibitor, single point]
70 | CCOc1cc(/C=C/c2nc3ccccc3c(=O)[nH]2)cc(Br)c1OC | inactive
71 | Nc1cc(Cl)nnc1Cl | inactive
72 | Cc1cc(Cl)c2oc(C(=O)N3CCC(O)(c4ccccc4)CC3)c(C)c2c1 | inconclusive: 11.7 µM [inhibitor, single point]
73 | Cc1ccc(S(=O)(=O)CCC(=O)Nc2nnc(-c3ccco3)o2)cc1 | inactive
74 | COc1ccc(NC(=O)CCC(=O)N2CCOCC2)c([N+](=O)[O-])c1 | inactive
